Laboratory results from article PMC8607621.
No constants are given. Whether binding was seen depends on the method and setting. Binding seen in cells or lysates may run through a third protein. Some results given as binding are weak or reduced against the parent protein; the word gives no strength.

Protein sequences, listed by entry. Tags and fused reporters are not part of them.
UniProt P48431: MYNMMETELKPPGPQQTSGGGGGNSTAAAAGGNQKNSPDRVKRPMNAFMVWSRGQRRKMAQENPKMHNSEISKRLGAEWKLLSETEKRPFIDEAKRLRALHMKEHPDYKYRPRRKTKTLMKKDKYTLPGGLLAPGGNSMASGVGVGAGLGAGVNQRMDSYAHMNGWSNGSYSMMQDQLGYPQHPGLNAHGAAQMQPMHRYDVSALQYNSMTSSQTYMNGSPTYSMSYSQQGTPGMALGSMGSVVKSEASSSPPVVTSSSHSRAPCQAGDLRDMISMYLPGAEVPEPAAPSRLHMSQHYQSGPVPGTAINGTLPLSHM

Target: SOX2 (human (endogenous in HEK293E)) (UniProt P48431)
Experiment: co-IP; lysates of HEK293E cells transfected with SLUG; buffer 10 mM HEPES pH 8.0, 150 mM NaCl, 0.1 mM EDTA, 20% glycerol, 0.2% NP-40; immunoprecipitated with anti-SOX2 at 4 °C, TrueBlot Anti-Mouse Ig IP beads; immunoblot with anti-SLUG and anti-SOX2

binding: binds
B1: SLUG (SNAI2) (protein, UniProt O43623 1-268)
chain: MPRSFLVKKHFNASKKPNYSELDTHTVIISPYLYESYSMPVIPQPEILSSGAYSPITVWTTAAPFHAQLPNGLSPLSGYSSSLGRVSPPPPSDTSSKDHSGSESPISDEEERLQSKLSDPHAIEAEKFQCNLCNKTYSTFSGLAKHKQLHCDAQSRKSFSCKYCDKEYVSLGALKMHIRTHTLPCVCKICGKAFSRPWLLQGHIRTHTGEKPFSCPHCNRAFADRSNLRAHLQTHSDVKKYQCKNCSKTFSRMSLLHKHEESGCCVAH
